{"source": "paper doi:10.1101/2022.06.16.496440", "molecules": {"B1": {"name": "EDS1-V5 (protein, UniProt Q9XF23 1-623)", "chain": "MAFEALTGINGDLITRSWSASKQAYLTERYHKEEAGAVVIFAFQPSFSEKDFFDPDNKSSFGEIKLNRVQFPCMRKIGKGDVATVNEAFLKNLEAVIDPRTSFQASVEMAVRSRKQIVFTGHSSGGATAILATVWYLEKYFIRNPNVYLEPRCVTFGAPLVGDSIFSHALGREKWSRFFVNFVTRFDIVPRITLARKASVEETLPHVLAQLDPRNSSVQESEQRITEFYTSVMRDTSTVANQAVCELTGSAEAILETLSSFLELSPYRPAGTFVFSTEKRLVAVNNSDAILQMLFYTCQASDEQEWSLIPFRSIRDHHSYEELVQSMGMKLFNHLDGENSIESSLNDLGVSTRGRQYVQAALEEEKKRVENQKKIIQVIQQERFLKKLAWIEDEYKPKCQAHKNGYYDSFKVSNEENDFKANVKRAELAGVFDEVLGLLKKCQLPDEFEGDIDWIKLATRYRRLVEPLDIANYHRHLKNEDTGPYMKRGRPTRYIYAQRGYEHHILKPNGMIAEDVFWNKVNGLNLGLQLEEIQETLKNSGSECGSCFWAEVEELKGKPYEEVEVRVKTLEGMLREWITAGEVDEKEIFLEGSTFRKWWITLPKNHKSHSPLRDYMMDEITDT"}, "B2": {"name": "AtEDS1-V5 (protein, UniProt Q9XF23 1-623)", "chain": "B1 chain"}, "B3": {"name": "AtSAG101-Myc (protein, UniProt Q4F883 28-537)", "chain": "KILEIHNPPYSNHDPGLQVSKKKKDSGLEFQIHREEKFTLVVFSAPPICRSSSSDSTLLHVKDKENPFPFLCSENNPSFSLHTPAFNLFTSASTSLTYLKSELLQTLKSEKPVIITGAALGGSVASLYTLWLLETIEPTLKRPLCITFGSPLIGDASLQQILENSVRNSCFLHVVSAQTRIKMDFFKPFGTFLICFDSGCVCIEDHVAVTELLNGVHDSGLVDYSQVLNRLDQSMLSLADSRLIPEDVIKGIEKRAEMKNLRFDMMFKKLNDMKISMAYIEWYKKKCKEVKIGYYDRFKTQLAFPSKEFDINIKNHHKSELNRFWKSVVEEVERRPQSDASILKRRFLFSGNNYRRMIEPLDIAEYYLEGRKEYRTTGRSHHYVMLEKWFGMESILIEKERCKKRDLSDLLTFDSCFWAEVEDSLIVINQLNTTVGMRDDVREVLTRKLVEFEGYVWEIITKREVSPEIFLEESSFMKWWKEYKKIKGFNSSYLTEFMNTRKYESYGKSQ"}}, "key": {"[1]": {"target": "T1, AtEDS1-nVenus (Arabidopsis) (UniProt Q9XF23)", "T1 sequence": "B1 chain", "test": "split reporter"}, "[2]": {"target": "T1, AtEDS1-nVenus (Arabidopsis)", "test": "condition: only cell-surface receptor activation without effector delivery"}, "[3]": {"target": "T2, SAG101-nVenus (Arabidopsis) (UniProt Q4F883)", "T2 sequence": "B3 chain", "test": "split reporter"}, "[4]": {"target": "NRG1.2-FLAG (Arabidopsis)", "test": "co-IP"}, "[5]": {"target": "NRG1.2-FLAG (Arabidopsis)", "test": "co-IP + native gel or EMSA"}, "[6]": {"target": "NRG1.2-FLAG (Arabidopsis)", "test": "co-IP", "remark": "listed apart in the source"}, "[7]": {"target": "AtNRG1.2^EEAA-FLAG (Arabidopsis)", "test": "condition: only co-expressed with RBA1 E86A in place of RBA1"}, "[8]": {"target": "AtNRG1.2^EEAA-FLAG (Arabidopsis)", "test": "co-IP"}}, "note": "No constants are given. Whether binding was seen depends on the method and setting. In cells and extracts the contact can be indirect. For some assays here: A result given as binding can be weak or reduced; the word gives no strength. For some assays here: Where a sequence is shown, tags or fusion partners need not be part of it."}
{"molecule": "AtNRG1.1-cCFP (Arabidopsis)", "values": [{"measurement": "binding", "setting": "[1]", "result": "binds"}, {"measurement": "binding", "setting": "[2]", "result": "no binding"}]}
{"molecule": "NRG1.1-cCFP (Arabidopsis)", "values": [{"measurement": "binding", "setting": "[3]", "result": "binds"}]}
{"molecule": "AtNRG1.1^EEAA-cCFP (Arabidopsis)", "values": [{"measurement": "binding", "setting": "[1]", "result": "binds"}]}
{"molecule": "B1", "values": [{"measurement": "binding", "setting": "[4]", "result": "binds weakly"}, {"measurement": "binding", "setting": "[5]", "result": "binds"}, {"measurement": "binding", "setting": "[6]", "result": "binds"}]}
{"molecule": "B2", "values": [{"measurement": "binding", "setting": "[7]", "result": "no binding"}, {"measurement": "binding", "setting": "[8]", "result": "binds"}]}
{"molecule": "B3", "values": [{"measurement": "binding", "setting": "[7]", "result": "no binding"}, {"measurement": "binding", "setting": "[8]", "result": "binds"}]}
